The values below come from US20120309934A1, “INTRACELLUAR TARGETING BIPODAL PEPTIDE BINDER” (priority 2009, published 2012).

Protein sequences, listed by entry. Tags and fused reporters are not part of them.
UniProt Q99836: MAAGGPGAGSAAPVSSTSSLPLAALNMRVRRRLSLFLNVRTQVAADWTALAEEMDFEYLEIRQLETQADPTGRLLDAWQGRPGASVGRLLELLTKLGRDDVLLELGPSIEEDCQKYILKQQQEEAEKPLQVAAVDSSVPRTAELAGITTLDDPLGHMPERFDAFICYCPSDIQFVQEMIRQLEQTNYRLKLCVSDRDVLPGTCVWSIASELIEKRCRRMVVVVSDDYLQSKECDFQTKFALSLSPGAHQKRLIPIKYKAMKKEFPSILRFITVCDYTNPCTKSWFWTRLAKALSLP
UniProt P40763: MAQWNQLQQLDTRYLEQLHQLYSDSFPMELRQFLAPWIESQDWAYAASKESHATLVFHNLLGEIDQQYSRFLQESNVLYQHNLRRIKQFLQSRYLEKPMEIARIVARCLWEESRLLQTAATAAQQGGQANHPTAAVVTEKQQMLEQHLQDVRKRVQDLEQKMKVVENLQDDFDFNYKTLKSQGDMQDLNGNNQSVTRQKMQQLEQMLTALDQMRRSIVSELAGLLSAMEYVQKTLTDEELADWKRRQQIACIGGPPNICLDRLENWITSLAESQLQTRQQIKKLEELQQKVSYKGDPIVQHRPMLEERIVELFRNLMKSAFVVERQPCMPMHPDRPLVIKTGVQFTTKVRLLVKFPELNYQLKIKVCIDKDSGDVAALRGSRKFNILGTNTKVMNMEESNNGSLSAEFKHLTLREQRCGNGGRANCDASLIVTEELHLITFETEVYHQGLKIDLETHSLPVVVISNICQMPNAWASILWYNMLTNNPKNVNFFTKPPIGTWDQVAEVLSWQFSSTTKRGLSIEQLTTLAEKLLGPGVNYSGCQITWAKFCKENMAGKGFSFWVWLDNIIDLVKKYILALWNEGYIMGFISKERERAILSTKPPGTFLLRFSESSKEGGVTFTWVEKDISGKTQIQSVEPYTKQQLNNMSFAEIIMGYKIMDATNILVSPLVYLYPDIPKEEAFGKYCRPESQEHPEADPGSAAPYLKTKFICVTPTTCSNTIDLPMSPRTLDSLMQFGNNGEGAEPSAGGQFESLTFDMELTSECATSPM

These are yes or no findings as the source states them, for the method shown. Some entries that bind do so weakly or less than the wild type.

Experiment [1] concerns the target Human MyD88 (Santa Cruz Biotechnology sc-4540 WB) (human) (UniProt Q99836). Nature of the experiment: phage ELISA: clones with higher absorbance than on BSA, sequenced. A general note: ELISA stands for enzyme-linked immunosorbent assay.
Experiment [2] has the same target. Nature of the experiment: phage ELISA on a panel of coated proteins.
Experiment [3] has the same target. Nature of the experiment: phage ELISA on a panel of coated proteins, anti-M13-HRP.
Experiment [4] has the same target. Briefly: phage ELISA, absorbance at 450 nm.
The target of experiment [5] is STAT3 protein (UniProt P40763). Briefly: phage ELISA, absorbance at 450 nm.
In experiment [6] the target is STAT3 protein (UniProt P40763). Nature of the experiment: phage ELISA on STAT3 and other proteins.
In experiment [7] the target is STAT3 protein (UniProt P40763). Nature of the experiment: SPR (Biacore X), STAT3 on CM5 chip, peptide at 2, 5 and 7.5 µM according to the text.

For ASTINFGSWTWENGKWTWKGYTRRWN [Peptide 2 specific to MyD88 (Table 3f), bipodal-peptide binder], the binding result in experiment [1] and in experiment [2] was “binds” each time.
HSHAFYGSWTWENGKWTWKGNPGWWT [Peptide 1 specific to MyD88 (Table 3f), bipodal-peptide binder]: the binding entry in experiment [1], in experiment [3], in experiment [4] and in experiment [2] was “binds” in each case.
HGFQWPGSWTWENGKWTWKGAYQFLK [STAT3-specific bipodal-peptide binder Peptide 2]: the binding result in experiment [5] and in experiment [6] was “binds” throughout.
On to QAYYIPGSWTWENGKWTWKGLWGPEF [STAT3-specific bipodal-peptide binder Peptide 1], for which the binding result in experiment [7], in experiment [5] and in experiment [6] was “binds” each time.
